{"source": "PubChem BioAssay AID652243 (Drosophila RNAi Screening Center, 2013)", "assay": "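Fly regulators of androgen-dependent reporter output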 (primary screen)", "system": "Drosophila S2R+ cells", "reagents": "long dsRNA against Drosophila genes", "duration": "72 h (48 h, then 24 h hormone)", "treatment": "synthetic androgen R1881 at 10 nM for 24 h", "read-out": "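Firefly light from an androgen-responsive reporter and Renilla control light per well, raw and unnormalised, for each of two replicates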", "direction": "firefly reporter light: higher = more light from androgen-responsive reporter; Renilla control light: higher = more constitutive control signal (cell number, transfection)", "rule for the call": "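Hit when the log firefly-to-Renilla ratio dropped or increased by a fixed fold versus the mean of GFP or LacZ controls across duplicate plates; lowering cut given as 1.5 and as 3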", "meaning of the calls": "active = hit: reporter lowered or raised; inactive = no hit", "note": "In all, the deposit lists about 24,000 reagents; this is a random part of those with a known target gene and a result. Of all reagents, 246 (1%) were called active. 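Plates not normalised; calls are printed but the firefly/Renilla ratio behind them is not deposited; fold cut for lowering reported inconsistently.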 Raw values vary from plate to plate and are shown uncorrected. Unmarked entries are inactive. Not stated in the record: the amount of reagent."}
{"gene knocked down": "Dpit47", "dsRNA": "DRSC04985", "firefly reporter light, replicate 1": 2.55e5, "firefly reporter light, replicate 2": 1.98e5, "Renilla control light, replicate 1": 1.20e6, "Renilla control light, replicate 2": 7.45e5}
{"gene knocked down": "Dpit47", "dsRNA": "DRSC28888", "firefly reporter light, replicate 1": 3.94e5, "firefly reporter light, replicate 2": 4.41e5, "Renilla control light, replicate 1": 1.10e6, "Renilla control light, replicate 2": 1.37e6}
{"gene knocked down": "CG13795", "dsRNA": "DRSC02299", "firefly reporter light, replicate 1": 2.95e5, "firefly reporter light, replicate 2": 3.23e5, "Renilla control light, replicate 1": 2.53e6, "Renilla control light, replicate 2": 2.21e6}
{"gene knocked down": "CG7556", "dsRNA": "DRSC20052", "firefly reporter light, replicate 1": 83181, "firefly reporter light, replicate 2": 2.00e5, "Renilla control light, replicate 1": 7.36e5, "Renilla control light, replicate 2": 7.63e5}
{"gene knocked down": "CG7556", "dsRNA": "DRSC26701", "firefly reporter light, replicate 1": 2.73e5, "firefly reporter light, replicate 2": 2.16e5, "Renilla control light, replicate 1": 5.79e5, "Renilla control light, replicate 2": 4.30e5}
{"gene knocked down": "Eogt", "dsRNA": "DRSC00727", "firefly reporter light, replicate 1": 7.16e5, "firefly reporter light, replicate 2": 8.53e5, "Renilla control light, replicate 1": 3.84e6, "Renilla control light, replicate 2": 2.53e6}
{"gene knocked down": "Eogt", "dsRNA": "DRSC26180", "firefly reporter light, replicate 1": 2.86e5, "firefly reporter light, replicate 2": 2.06e5, "Renilla control light, replicate 1": 3.98e5, "Renilla control light, replicate 2": 4.09e5}
{"gene knocked down": "Adgf-A", "dsRNA": "DRSC10566", "firefly reporter light, replicate 1": 33567, "firefly reporter light, replicate 2": 51483, "Renilla control light, replicate 1": 4.15e5, "Renilla control light, replicate 2": 3.86e5}
{"gene knocked down": "Adgf-A", "dsRNA": "DRSC24552", "firefly reporter light, replicate 1": 6.65e5, "firefly reporter light, replicate 2": 5.35e5, "Renilla control light, replicate 1": 8.38e5, "Renilla control light, replicate 2": 7.81e5}
{"gene knocked down": "Gld2", "dsRNA": "DRSC23037", "firefly reporter light, replicate 1": 8.78e5, "firefly reporter light, replicate 2": 1.15e6, "Renilla control light, replicate 1": 1.92e6, "Renilla control light, replicate 2": 2.17e6}
{"gene knocked down": "Gld2", "dsRNA": "DRSC27759", "firefly reporter light, replicate 1": 3.45e5, "firefly reporter light, replicate 2": 2.02e5, "Renilla control light, replicate 1": 4.87e5, "Renilla control light, replicate 2": 5.58e5}
{"gene knocked down": "Act87E", "dsRNA": "DRSC22578", "firefly reporter light, replicate 1": 4.01e5, "firefly reporter light, replicate 2": 3.16e5, "Renilla control light, replicate 1": 3.57e5, "Renilla control light, replicate 2": 2.60e5}
{"gene knocked down": "Act87E", "dsRNA": "DRSC23961", "firefly reporter light, replicate 1": 7.53e5, "firefly reporter light, replicate 2": 7.79e5, "Renilla control light, replicate 1": 1.36e6, "Renilla control light, replicate 2": 1.37e6}
{"gene knocked down": "CG9286", "dsRNA": "DRSC16467", "firefly reporter light, replicate 1": 32617, "firefly reporter light, replicate 2": 89497, "Renilla control light, replicate 1": 2.34e5, "Renilla control light, replicate 2": 2.45e5}
{"gene knocked down": "CG9286", "dsRNA": "DRSC28102", "firefly reporter light, replicate 1": 1.03e6, "firefly reporter light, replicate 2": 1.02e6, "Renilla control light, replicate 1": 1.56e6, "Renilla control light, replicate 2": 1.76e6}
{"gene knocked down": "CG3649", "dsRNA": "DRSC04400", "firefly reporter light, replicate 1": 4.62e5, "firefly reporter light, replicate 2": 3.90e5, "Renilla control light, replicate 1": 2.82e6, "Renilla control light, replicate 2": 2.34e6}
{"gene knocked down": "CG3649", "dsRNA": "DRSC28728", "firefly reporter light, replicate 1": 3.82e5, "firefly reporter light, replicate 2": 4.15e5, "Renilla control light, replicate 1": 6.04e5, "Renilla control light, replicate 2": 9.02e5}
{"gene knocked down": "Fmo-1", "dsRNA": "DRSC04328", "firefly reporter light, replicate 1": 1.34e6, "firefly reporter light, replicate 2": 6.61e5, "Renilla control light, replicate 1": 2.17e6, "Renilla control light, replicate 2": 1.03e6}
{"gene knocked down": "Fmo-1", "dsRNA": "DRSC29306", "firefly reporter light, replicate 1": 1.08e6, "firefly reporter light, replicate 2": 1.12e6, "Renilla control light, replicate 1": 9.00e5, "Renilla control light, replicate 2": 8.21e5}
{"gene knocked down": "CG15387", "dsRNA": "DRSC00401", "firefly reporter light, replicate 1": 1.01e5, "firefly reporter light, replicate 2": 96493, "Renilla control light, replicate 1": 1.05e6, "Renilla control light, replicate 2": 6.99e5}
{"gene knocked down": "CG15812", "dsRNA": "DRSC08479", "firefly reporter light, replicate 1": 1.45e5, "firefly reporter light, replicate 2": 1.17e5, "Renilla control light, replicate 1": 1.16e6, "Renilla control light, replicate 2": 1.09e6}
{"gene knocked down": "CG33543", "dsRNA": "DRSC00384", "firefly reporter light, replicate 1": 69713, "firefly reporter light, replicate 2": 68701, "Renilla control light, replicate 1": 6.77e5, "Renilla control light, replicate 2": 6.27e5}
{"gene knocked down": "CG33543", "dsRNA": "DRSC00385", "firefly reporter light, replicate 1": 54228, "firefly reporter light, replicate 2": 82392, "Renilla control light, replicate 1": 5.09e5, "Renilla control light, replicate 2": 9.37e5}
{"gene knocked down": "CG15046", "dsRNA": "DRSC19622", "firefly reporter light, replicate 1": 7.17e5, "firefly reporter light, replicate 2": 9.07e5, "Renilla control light, replicate 1": 3.43e6, "Renilla control light, replicate 2": 3.32e6}
{"gene knocked down": "CG34029", "dsRNA": "DRSC38893", "firefly reporter light, replicate 1": 1.00e6, "firefly reporter light, replicate 2": 7.51e5, "Renilla control light, replicate 1": 2.41e6, "Renilla control light, replicate 2": 2.04e6}
{"gene knocked down": "su(Hw)", "dsRNA": "DRSC17074", "firefly reporter light, replicate 1": 31022, "firefly reporter light, replicate 2": 8186, "Renilla control light, replicate 1": 2.76e5, "Renilla control light, replicate 2": 2.81e5}
{"gene knocked down": "CG13842", "dsRNA": "DRSC14692", "firefly reporter light, replicate 1": 1.45e5, "firefly reporter light, replicate 2": 2.15e5, "Renilla control light, replicate 1": 2.35e6, "Renilla control light, replicate 2": 2.25e6}

Targets listed so far whose gene name begins with F or f:
{"gene knocked down": "Fmo-1", "dsRNA": "DRSC04328", "firefly reporter light, replicate 1": 1.34e6, "firefly reporter light, replicate 2": 6.61e5, "Renilla control light, replicate 1": 2.17e6, "Renilla control light, replicate 2": 1.03e6}
{"gene knocked down": "Fmo-1", "dsRNA": "DRSC29306", "firefly reporter light, replicate 1": 1.08e6, "firefly reporter light, replicate 2": 1.12e6, "Renilla control light, replicate 1": 9.00e5, "Renilla control light, replicate 2": 8.21e5}
